# Laboratory results published in the supplement of paper PMC10032668.
# Sequences of proteins named here, by UniProt entry; tags and fusion partners are left off.
# FABP5, Q01469, UniProt Q01469, whole entry: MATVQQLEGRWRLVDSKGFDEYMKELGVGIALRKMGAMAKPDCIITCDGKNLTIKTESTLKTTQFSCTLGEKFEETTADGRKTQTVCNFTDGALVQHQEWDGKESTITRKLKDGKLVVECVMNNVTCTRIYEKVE
# EIF4B, P23588, UniProt P23588, whole entry: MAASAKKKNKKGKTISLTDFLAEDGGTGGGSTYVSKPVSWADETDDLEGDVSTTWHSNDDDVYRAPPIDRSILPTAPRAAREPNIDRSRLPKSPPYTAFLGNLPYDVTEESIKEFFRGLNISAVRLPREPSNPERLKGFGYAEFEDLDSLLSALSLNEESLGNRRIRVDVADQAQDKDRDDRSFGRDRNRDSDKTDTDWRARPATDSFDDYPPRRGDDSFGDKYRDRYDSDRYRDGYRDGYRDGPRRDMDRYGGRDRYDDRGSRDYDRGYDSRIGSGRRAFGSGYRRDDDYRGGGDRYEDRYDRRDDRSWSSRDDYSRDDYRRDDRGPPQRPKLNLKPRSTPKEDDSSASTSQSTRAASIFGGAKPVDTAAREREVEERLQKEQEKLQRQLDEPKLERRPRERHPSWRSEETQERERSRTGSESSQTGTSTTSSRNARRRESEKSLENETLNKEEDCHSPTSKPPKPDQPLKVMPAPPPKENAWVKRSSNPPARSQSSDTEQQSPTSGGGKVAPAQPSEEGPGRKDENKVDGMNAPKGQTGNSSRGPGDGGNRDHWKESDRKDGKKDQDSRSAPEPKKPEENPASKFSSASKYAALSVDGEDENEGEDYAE
# HBS1L, Q9Y450, UniProt Q9Y450, whole entry: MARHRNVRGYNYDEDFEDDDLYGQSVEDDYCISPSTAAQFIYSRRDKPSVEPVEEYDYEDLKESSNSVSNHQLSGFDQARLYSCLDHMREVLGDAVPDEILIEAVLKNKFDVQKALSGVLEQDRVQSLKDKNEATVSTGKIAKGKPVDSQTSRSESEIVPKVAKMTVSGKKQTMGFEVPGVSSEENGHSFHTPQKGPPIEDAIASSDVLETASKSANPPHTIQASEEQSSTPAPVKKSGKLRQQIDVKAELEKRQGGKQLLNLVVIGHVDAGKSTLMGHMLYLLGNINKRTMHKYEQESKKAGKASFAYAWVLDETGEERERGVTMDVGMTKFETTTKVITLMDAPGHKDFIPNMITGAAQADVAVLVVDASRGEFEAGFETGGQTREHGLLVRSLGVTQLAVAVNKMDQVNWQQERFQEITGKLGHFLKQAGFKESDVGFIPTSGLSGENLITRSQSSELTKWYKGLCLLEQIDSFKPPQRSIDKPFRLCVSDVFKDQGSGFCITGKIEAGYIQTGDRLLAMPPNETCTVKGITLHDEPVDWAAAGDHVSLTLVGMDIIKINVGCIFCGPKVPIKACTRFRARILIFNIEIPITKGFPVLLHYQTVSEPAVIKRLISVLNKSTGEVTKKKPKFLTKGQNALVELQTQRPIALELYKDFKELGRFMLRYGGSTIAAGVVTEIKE
# The list shows a part of the results. Only hits are listed; about a third recur on repeated control peptides.
# B1: CTC-471J1.11 (peptide)
# chain: MMAVTSQLNGKLKSP
# B2: SNHG8 (peptide)
# chain: RSQDIGRSGAALETL
# Experiments:
# Assay in all cases: PRISMA enrichment of interactor (LFQ) in peptide spot vs all other peptide spots (log2 fold change); higher = stronger / more specific binding of the interactor to the peptide
# [1] = target: ARF6, P62330
# Experimental: (§1)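 PRISMA: 15-aa overlapping tiles (offset 8 aa) of 60 microproteins, plus SOS1/GLUT1 control peptides, were spot-synthesized on cellulose membranes in triplicate. Membranes were incubated with benzonase-treated HEK293T lysate, and bound proteins were identified by LC-MS/MS with LFQ. Enrichment is the log2 fold change of each protein in one spot versus all other spots. Only interactors passing the significance cutoff are listed.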
# [2] = target: ARPC4, P59998
# Experimental: as §1
# [3] = target: DCXR, Q7Z4W1
# Experimental: as §1
# [4] = target: DERPC, P0CG12
# Experimental: as §1
# [5] = target: FABP5, Q01469
# Experimental: as §1
# [6] = target: PRPF8, Q6P2Q9
# Experimental: as §1
# [7] = target: RRP1B, Q14684
# Experimental: as §1
# [8] = target: SART3, Q15020
# Experimental: as §1
# [9] = target: SHMT1, P34896
# Experimental: as §1
# [10] = target: SNX9, Q9Y5X1
# Experimental: as §1
# [11] = target: WDR44, Q5JSH3
# Experimental: as §1
# [12] = target: WDR5, P61964
# Experimental: as §1
# [13] = target: ARGLU1, Q9NWB6
# Experimental: as §1
# [14] = target: BTAF1, O14981
# Experimental: as §1
# [15] = target: CDK11A, Q9UQ88
# Experimental: as §1
# [16] = target: CLTB, P09497
# Experimental: as §1
# [17] = target: CMAS, Q8NFW8
# Experimental: as §1
# [18] = target: COPS5, Q92905
# Experimental: as §1
# [19] = target: EIF4B, P23588
# Experimental: as §1
# [20] = target: FAM120A, Q9NZB2
# Experimental: as §1
# [21] = target: HBS1L, Q9Y450
# Experimental: as §1
# [22] = target: HIP1R, O75146
# Experimental: as §1
# [23] = target: LAMTOR4, Q0VGL1
# Experimental: as §1
# [24] = target: LASP1, Q14847
# Experimental: as §1
# [25] = target: MRPL54, Q6P161
# Experimental: as §1
# [26] = target: NCOA5, Q9HCD5
# Experimental: as §1
# [27] = target: NOLC1, Q14978
# Experimental: as §1
# [28] = target: NUP188, Q5SRE5
# Experimental: as §1
# [29] = target: PABPN1, Q86U42
# Experimental: as §1
# [30] = target: PDIA4, P13667
# Experimental: as §1
# [31] = target: PEF1, Q9UBV8
# Experimental: as §1
# [32] = target: PEX11B, O96011
# Experimental: as §1
# [33] = target: PREX2, Q70Z35
# Experimental: as §1
# [34] = target: RAD51AP1, Q96B01
# Experimental: as §1
# [35] = target: RANBP6, O60518
# Experimental: as §1
# [36] = target: RCC1, P18754
# Experimental: as §1
# [37] = target: RIF1, Q5UIP0
# Experimental: as §1
# [38] = target: SPTAN1, Q13813
# Experimental: as §1
# [39] = target: TBC1D10B, Q4KMP7
# Experimental: as §1
# [40] = target: VARS, P26640
# Experimental: as §1
# [41] = target: WDR18, Q9BV38
# Experimental: as §1
# [42] = target: WDR74, Q6RFH5
# Experimental: as §1
binder,measurement,setting,value
B1,PRISMA enrichment of interactor (log2),[1],3.96
same,PRISMA enrichment of interactor (log2),[2],3.9
same,PRISMA enrichment of interactor (log2),[3],7.87
same,PRISMA enrichment of interactor (log2),[4],4.51
same,PRISMA enrichment of interactor (log2),[5],4.59
same,PRISMA enrichment of interactor (log2),[6],4.56
same,PRISMA enrichment of interactor (log2),[7],4.82
same,PRISMA enrichment of interactor (log2),[8],4.51
same,PRISMA enrichment of interactor (log2),[9],6.68
same,PRISMA enrichment of interactor (log2),[10],5.82
same,PRISMA enrichment of interactor (log2),[11],8.12
same,PRISMA enrichment of interactor (log2),[12],5.84
B2,PRISMA enrichment of interactor (log2),[13],4.49
same,PRISMA enrichment of interactor (log2),[14],4.09
same,PRISMA enrichment of interactor (log2),[15],6.83
same,PRISMA enrichment of interactor (log2),[16],4.97
same,PRISMA enrichment of interactor (log2),[17],4.41
same,PRISMA enrichment of interactor (log2),[18],5.07
same,PRISMA enrichment of interactor (log2),[19],5.36
same,PRISMA enrichment of interactor (log2),[20],4.25
same,PRISMA enrichment of interactor (log2),[21],4.21
same,PRISMA enrichment of interactor (log2),[22],5.76
same,PRISMA enrichment of interactor (log2),[23],3.89
same,PRISMA enrichment of interactor (log2),[24],4.94
same,PRISMA enrichment of interactor (log2),[25],3.86
same,PRISMA enrichment of interactor (log2),[26],5.8
same,PRISMA enrichment of interactor (log2),[27],6.51
same,PRISMA enrichment of interactor (log2),[28],6.58
same,PRISMA enrichment of interactor (log2),[29],4.61
same,PRISMA enrichment of interactor (log2),[30],5.66
same,PRISMA enrichment of interactor (log2),[31],4.69
same,PRISMA enrichment of interactor (log2),[32],7.17
same,PRISMA enrichment of interactor (log2),[33],4.3
same,PRISMA enrichment of interactor (log2),[34],6.87
same,PRISMA enrichment of interactor (log2),[35],6.18
same,PRISMA enrichment of interactor (log2),[36],4.4
same,PRISMA enrichment of interactor (log2),[37],4.98
same,PRISMA enrichment of interactor (log2),[38],8.01
same,PRISMA enrichment of interactor (log2),[39],8.32
same,PRISMA enrichment of interactor (log2),[40],4.35
same,PRISMA enrichment of interactor (log2),[41],4.46
same,PRISMA enrichment of interactor (log2),[42],4.32

# Some of the entries so far, bar-delimited.
binder | measurement | setting | value
B2 | PRISMA enrichment of interactor (log2) | [29] | 4.61
same | PRISMA enrichment of interactor (log2) | [30] | 5.66
same | PRISMA enrichment of interactor (log2) | [31] | 4.69
same | PRISMA enrichment of interactor (log2) | [32] | 7.17
same | PRISMA enrichment of interactor (log2) | [33] | 4.3
same | PRISMA enrichment of interactor (log2) | [34] | 6.87
same | PRISMA enrichment of interactor (log2) | [35] | 6.18
same | PRISMA enrichment of interactor (log2) | [36] | 4.4
same | PRISMA enrichment of interactor (log2) | [37] | 4.98
same | PRISMA enrichment of interactor (log2) | [38] | 8.01
same | PRISMA enrichment of interactor (log2) | [39] | 8.32
